PubChem BioAssay AID1259290 – Sanger Institute, 2017

Assay: 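siRNA screen across the kinome seeking synthetic lethal partners for BYL719, cetuximab or trametinib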 (primary screen)
Cells: human SNUC1 colorectal cancer cells
Reagent: siRNA pool against human genes
Treatment: anchor drugs BYL719 1 µM, cetuximab 5 µg/ml or trametinib 10 nM, or DMSO vehicle alone
Measured: 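Cell viability relative to a non-targeting siRNA control, replicate-averaged, as robust z-score for knock-down alone, plus a synergy score for each anchor drug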
Scale: viability z-score, siRNA alone: higher = more viable cells; low values mean essential gene; viability vs control, siRNA alone: higher = more viable cells; synergy score with BYL719: higher = stronger synthetic lethal effect with drug
Active means: 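a knock-down without drug scoring a robust z under -3 counts as essential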
Calls: active = essential: knock-down alone cut viability (z below -3); inactive = no clear viability loss with knock-down alone
Shown is a random part of 794 reagents tested. Over the whole deposit, 9 (1.1%) were called active. 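Calls rest on knock-down alone, not drug synergy; synergy above 0.15 was grouped apart and does not affect calls.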 A number with no mark means an inactive call. No viability above 1 is reported: the scale is capped. Not all columns of the deposit are shown. Not given: the amount of reagent, the time to read-out.

Target gene,"viability z-score, siRNA alone","viability vs control, siRNA alone",synergy score with BYL719
CDC7 (cell division cycle 7),0.31,0.944,0.0353
MAP3K9 (mitogen-activated protein kinase kinase kinase 9),0.0659,0.922,-0.0925
RET (ret proto-oncogene),0.936,1,-0.103
ZC3H11A (zinc finger CCCH-type containing 11A),0.936,1,-0.0622
CDK20 (cyclin dependent kinase 20),0.936,1,0.011
"NRAS (NRAS proto-oncogene, GTPase)",0.936,1,-0.186
MAP3K19 (mitogen-activated protein kinase kinase kinase 19),-2.45,0.695,-0.12
"FYN (FYN proto-oncogene, Src family tyrosine kinase)",0.694,0.978,-0.216
MAP2K4 (mitogen-activated protein kinase kinase 4),0.936,1,-0.129
CAMKV (CaM kinase like vesicle associated),0.936,1,-0.198
GCK (glucokinase),-0.246,0.894,-0.163
MAPK8 (mitogen-activated protein kinase 8),-0.0573,0.911,-0.177
FGFRL1 (fibroblast growth factor receptor like 1),0.936,1,-0.198
PI4KB (phosphatidylinositol 4-kinase beta),0.118,0.926,-0.0583
COMMD3 (COMM domain containing 3),0.936,1,-0.159
CDC73 (cell division cycle 73),0.936,1,-0.103
MAP4K2 (mitogen-activated protein kinase kinase kinase kinase 2),-1.72,0.76,-0.234
PRKAA2 (protein kinase AMP-activated catalytic subunit alpha 2),0.0633,0.921,-0.174
SOX9 (SRY-box transcription factor 9),0.775,0.985,-0.21
HIPK2 (homeodomain interacting protein kinase 2),0.0583,0.921,-0.213
GUCY2C (guanylate cyclase 2C),0.256,0.939,-0.246
PDK4 (pyruvate dehydrogenase kinase 4),0.841,0.991,-0.08
CDKN1B (cyclin dependent kinase inhibitor 1B),0.636,0.973,-0.0576
BRD4 (bromodomain containing 4),-1.65,0.767,-0.145
PDK2 (pyruvate dehydrogenase kinase 2),-0.172,0.9,-0.0521
STK11 (serine/threonine kinase 11),-1.18,0.809,-0.135
RFK (riboflavin kinase),0.936,1,-0.18
THNSL1 (threonine synthase like 1),-0.103,0.906,-0.24
PAK5 (p21 (RAC1) activated kinase 5),0.936,1,0.121
KDR (kinase insert domain receptor),0.701,0.979,-0.205
PLK2 (polo like kinase 2),0.936,1,-0.0739
PIK3CD,0.936,1,-0.133
FLT1 (fms related receptor tyrosine kinase 1),0.612,0.971,-0.222
CHEK2 (checkpoint kinase 2),0.759,0.984,-0.21
CDK12 (cyclin dependent kinase 12),0.936,1,-0.0333
LATS1 (large tumor suppressor kinase 1),0.936,1,-0.133
SRPK2 (SRSF protein kinase 2),0.936,1,-0.189
SYK (spleen associated tyrosine kinase),0.817,0.989,-0.13
PDK3 (pyruvate dehydrogenase kinase 3),0.936,1,0.00528
DGKH (diacylglycerol kinase eta),-0.396,0.88,0.0294
CTCF (CCCTC-binding factor),0.551,0.965,-0.0456
NTN4 (netrin 4),-1.58,0.774,-0.0189
LIMK1 (LIM domain kinase 1),-0.275,0.891,-0.0829
PAK1 (p21 (RAC1) activated kinase 1),0.936,1,-0.198
PANK4 (pantothenate kinase 4 (inactive)),-1.59,0.772,-0.186
EIF2AK4 (eukaryotic translation initiation factor 2 alpha kinase 4),-0.932,0.832,-0.042
BMPR2 (bone morphogenetic protein receptor type 2),-0.0896,0.908,-0.109
CHD9 (chromodomain helicase DNA binding protein 9),-1.69,0.764,-0.104
SMAD4 (SMAD family member 4),-1.31,0.797,-0.311
PGK2 (phosphoglycerate kinase 2),-1.1,0.816,-0.262
STK33 (serine/threonine kinase 33),-0.292,0.889,-0.116
TAB1 (TGF-beta activated kinase 1 (MAP3K7) binding protein 1),0.936,1,-0.109
PAPSS1 (3'-phosphoadenosine 5'-phosphosulfate synthase 1),0.169,0.931,-0.114
MED12 (mediator complex subunit 12),-0.712,0.852,-0.192
EIF2AK3 (eukaryotic translation initiation factor 2 alpha kinase 3),0.029,0.918,-0.0859
TNK1 (tyrosine kinase non receptor 1),0.57,0.967,-0.0447
MECOM (MDS1 and EVI1 complex locus),0.921,0.999,-0.199
"GUCY2D (guanylate cyclase 2D, retinal)",-2.52,0.688,-0.175
"PCK2 (phosphoenolpyruvate carboxykinase 2, mitochondrial)",0.936,1,-0.198
SCYL1 (SCY1 like pseudokinase 1),-1.29,0.799,-0.329
PHKG1 (phosphorylase kinase catalytic subunit gamma 1),-1.63,0.769,-0.156
GALK2 (galactokinase 2),0.0304,0.918,-0.0151
TEK (TEK receptor tyrosine kinase),0.0378,0.919,-0.173
